These are yes or no findings as the source states them, for the method shown. In cells and extracts the contact can be indirect. These calls come from enrichment with a bait or labelling near it, and not all partners need be listed.
B1: MSL3 (protein, UniProt Q8N5Y2 1-521)
chain: MSASEGMKFKFHSGEKVLCFEPDPTKARVLYDAKIVDVIVGKDEKGRKIPEYLIHFNGWNRSWDRWAAEDHVLRDTDENRRLQRKLARKAVARLRSTGRKKKRCRLPGVDSVLKGLPTEEKDENDENSLSSSSDCSENKDEEISEESDIEEKTEVKEEPELQTRREMEERTITIEIPEVLKKQLEDDCYYINRRKRLVKLPCQTNIITILESYVKHFAINAAFSANERPRHHHVMPHANMNVHYIPAEKNVDLCKEMVDGLRITFDYTLPLVLLYPYEQAQYKKVTSSKFFLPIKESATSTNRSQEELSPSPPLLNPSTPQSTESQPTTGEPATPKRRKAEPEALQSLRRSTRHSANCDRLSESSASPQPKRRQQDTSASMPKLFLHLEKKTPVHSRSSSPIPLTPSKEGSAVFAGFEGRRTNEINEVLSWKLVPDNYPPGDQPPPPSYIYGAQHLLRLFVKLPEILGKMSFSEKNLKALLKHFDLFLRFLAEYHDDFFPESAYVAACEAHYSTKNPRAIY
B2: BAZ1B (protein, UniProt Q9UIG0 1-1483)
chain: MAPLLGRKPFPLVKPLPGEEPLFTIPHTQEAFRTREEYEARLERYSERIWTCKSTGSSQLTHKEAWEEEQEVAELLKEEFPAWYEKLVLEMVHHNTASLEKLVDTAWLEIMTKYAVGEECDFEVGKEKMLKVKIVKIHPLEKVDEEATEKKSDGACDSPSSDKENSSQIAQDHQKKETVVKEDEGRRESINDRARRSPRKLPTSLKKGERKWAPPKFLPHKYDVKLQNEDKIISNVPADSLIRTERPPNKEIVRYFIRHNALRAGTGENAPWVVEDELVKKYSLPSKFSDFLLDPYKYMTLNPSTKRKNTGSPDRKPSKKSKTDNSSLSSPLNPKLWCHVHLKKSLSGSPLKVKNSKNSKSPEEHLEEMMKMMSPNKLHTNFHIPKKGPPAKKPGKHSDKPLKAKGRSKGILNGQKSTGNSKSPKKGLKTPKTKMKQMTLLDMAKGTQKMTRAPRNSGGTPRTSSKPHKHLPPAALHLIAYYKENKDREDKRSALSCVISKTARLLSSEDRARLPEELRSLVQKRYELLEHKKRWASMSEEQRKEYLKKKREELKKKLKEKAKERREKEMLERLEKQKRYEDQELTGKNLPAFRLVDTPEGLPNTLFGDVAMVVEFLSCYSGLLLPDAQYPITAVSLMEALSADKGGFLYLNRVLVILLQTLLQDEIAEDYGELGMKLSEIPLTLHSVSELVRLCLRRSDVQEESEGSDTDDNKDSAAFEDNEVQDEFLEKLETSEFFELTSEEKLQILTALCHRILMTYSVQDHMETRQQMSAELWKERLAVLKEENDKKRAEKQKRKEMEAKNKENGKVENGLGKTDRKKEIVKFEPQVDTEAEDMISAVKSRRLLAIQAKKEREIQEREMKVKLERQAEEERIRKHKAAAEKAFQEGIAKAKLVMRRTPIGTDRNHNRYWLFSDEVPGLFIEKGWVHDSIDYRFNHHCKDHTVSGDEDYCPRSKKANLGKNASMNTQHGTATEVAVETTTPKQGQNLWFLCDSQKELDELLNCLHPQGIRESQLKERLEKRYQDIIHSIHLARKPNLGLKSCDGNQELLNFLRSDLIEVATRLQKGGLGYVEETSEFEARVISLEKLKDFGECVIALQASVIKKFLQGFMAPKQKRRKLQSEDSAKTEEVDEEKKMVEEAKVASALEKWKTAIREAQTFSRMHVLLGMLDACIKWDMSAENARCKVCRKKGEDDKLILCDECNKAFHLFCLRPALYEVPDGEWQCPACQPATARRNSRGRNYTEESASEDSEDDESDEEEEEEEEEEEEEDYEVAGLRLRPRKTIRGKHSVIPPAARSGRRPGKKPHSTRRSQPKAPPVDDAEVDELVLQTKRSSRRQSLELQKCEEILHKIVKYRFSWPFREPVTRDEAEDYYDVITHPMDFQTVQNKCSCGSYRSVQEFLTDMKQVFTNAEVYNCRGSHVLSCMVKTEQCLVALLHKHLPGHPYVRRKRKKFPDRLAEDEGDSEPEAVGQSRGRRQKK
B3: CDYL (protein, UniProt Q9Y232 1-598)
chain: MTFQASHRSAWGKSRKKNWQYEGPTQKLFLKRNNVSAPDGPSDPSISVSSEQSGAQQPPALQVERIVDKRKNKKGKTEYLVRWKGYDSEDDTWEPEQHLVNCEEYIHDFNRRHTEKQKESTLTRTNRTSPNNARKQISRSTNSNFSKTSPKALVIGKDHESKNSQLFAASQKFRKNTAPSLSSRKNMDLAKSGIKILVPKSPVKSRTAVDGFQSESPEKLDPVEQGQEDTVAPEVAAEKPVGALLGPGAERARMGSRPRIHPLVPQVPGPVTAAMATGLAVNGKGTSPFMDALTANGTTNIQTSVTGVTASKRKFIDDRRDQPFDKRLRFSVRQTESAYRYRDIVVRKQDGFTHILLSTKSSENNSLNPEVMREVQSALSTAAADDSKLVLLSAVGSVFCCGLDFIYFIRRLTDDRKRESTKMAEAIRNFVNTFIQFKKPIIVAVNGPAIGLGASILPLCDVVWANEKAWFQTPYTTFGQSPDGCSTVMFPKIMGGASANEMLLSGRKLTAQEACGKGLVSQVFWPGTFTQEVMVRIKELASCNPVVLEESKALVRCNMKMELEQANERECEVLKKIWGSAQGMDSMLKYLQRKIDEF
B4: SNW1 (protein, UniProt Q13573 1-536)
chain: MALTSFLPAPTQLSQDQLEAEEKARSQRSRQTSLVSSRREPPPYGYRKGWIPRLLEDFGDGGAFPEIHVAQYPLDMGRKKKMSNALAIQVDSEGKIKYDAIARQGQSKDKVIYSKYTDLVPKEVMNADDPDLQRPDEEAIKEITEKTRVALEKSVSQKVAAAMPVRAADKLAPAQYIRYTPSQQGVAFNSGAKQRVIRMVEMQKDPMEPPRFKINKKIPRGPPSPPAPVMHSPSRKMTVKEQQEWKIPPCISNWKNAKGYTIPLDKRLAADGRGLQTVHINENFAKLAEALYIADRKAREAVEMRAQVERKMAQKEKEKHEEKLREMAQKARERRAGIKTHVEKEDGEARERDEIRHDRRKERQHDRNLSRAAPDKRSKLQRNENRDISEVIALGVPNPRTSNEVQYDQRLFNQSKGMDSGFAGGEDEIYNVYDQAWRGGKDMAQSIYRPSKNLDKDMYGDDLEARIKTNRFVPDKEFSGSDRRQRGREGPVQFEEDPFGLDKFLEEAKQHGGSKRPSDSSRPKEHEHEGKKRRKE
B5: ZBTB4 (protein, UniProt Q9P1Z0 1-1013)
chain: MPPPAEVTDPSHAPAVLRQLNEQRLRGLFCDVTLIAGDTKFPAHRSVLAASSPFFREALLTSAPLPLPPATGGAAPNPATTTAASSSSSSSSSSSSSSSSASSSSSSSSSSPPPASPPASSPPRVLELPGVPAAAFSDVLNFIYSARLALPGGGGDGAAVAEIGALGRRLGISRLQGLGEGGDAWVPPTPAPMATSQPEEDSFGPGPRPAGEWEGDRAEAQAPDLQCSLPRRPLPCPQCGKSFIHPKRLQTHEAQCRRGASTRGSTGLGAGGAGPGGPAGVDASALPPPVGFRGGPEHVVKVVGGHVLYVCAACERSYVTLSSLKRHSNVHSWRRKYPCRYCEKVFALAEYRTKHEVWHTGERRYQCIFCWETFVTYYNLKTHQRAFHGISPGLLASEKTPNGGYKPKLNTLKLYRLLPMRAAKRPYKTYSQGAPEAPLSPTLNTPAPVAMPASPPPGPPPAPEPGPPPSVITFAHPAPSVIVHGGSSSGGGGSGTASTGGSQAASVITYTAPPRPPKKREYPPPPPEPAATPTSPATAVSPATAAGPAMATTTEEAKGRNPRAGRTLTYTAKPVGGIGGGGGPPTGAGRGPSQLQAPPPLCQITVRIGEEAIVKRRISETDLRPGELSGEEMEESEEDEEEEDEEEEEEDEEESKAGGEDQLWRPYYSYKPKRKAGAAGGASVGGSGLPRGRRPPRWRQKLERRSWEETPAAESPAGRARTERRHRCGDCAQTFTTLRKLRKHQEAHGGGSHSSRAGRRPSTRFTCPHCAKVCKTAAALSRHGQRHAAERPGGTPTPVIAYSKGSAGTRPGDVKEEAPQEMQVSSSSGEAGGGSTAAEEASETASLQDPIISGGEEPPVVASGGSYVYPPVQEFPLALIGGGREPGGGRGKSGSEGPVGAGEGDRMEGIGAAKVTFYPEPYPLVYGPQLLAAYPYNFSNLAALPVALNMVLPDEKGAGALPFLPGVFGYAVNPQAAPPAPPTPPPPTLPPPIPPKGEGERAGVERTQKGDVG
B6: SIN3B (protein, UniProt O75182 1-1162)
chain: MAHAGGGSGGSGAGGPAGRGLSGARWGRSGSAGHEKLPVHVEDALTYLDQVKIRFGSDPATYNGFLEIMKEFKSQSIDTPGVIRRVSQLFHEHPDLIVGFNAFLPLGYRIDIPKNGKLNIQSPLTSQENSHNHGDGAEDFKQQVPYKEDKPQVPLESDSVEFNNAISYVNKIKTRFLDHPEIYRSFLEILHTYQKEQLNTRGRPFRGMSEEEVFTEVANLFRGQEDLLSEFGQFLPEAKRSLFTGNGPCEMHSVQKNEHDKTPEHSRKRSRPSLLRPVSAPAKKKMKLRGTKDLSIAAVGKYGTLQEFSFFDKVRRVLKSQEVYENFLRCIALFNQELVSGSELLQLVSPFLGKFPELFAQFKSFLGVKELSFAPPMSDRSGDGISREIDYASCKRIGSSYRALPKTYQQPKCSGRTAICKELDHWTLLQGSWTDDYCMSKFKNTCWIPGYSAGVLNDTWVSFPSWSEDSTFVSSKKTPYEEQLHRCEDERFELDVVLETNLATIRVLESVQKKLSRMAPEDQEKFRLDDSLGGTSEVIQRRAIYRIYGDKAPEIIESLKKNPVTAVPVVLKRLKAKEEEWREAQQGFNKIWREQYEKAYLKSLDHQAVNFKQNDTKALRSKSLLNEIESVYDEHQEQHSEGRSAPSSEPHLIFVYEDRQILEDAAALISYYVKRQPAIQKEDQGTIHQLLHQFVPSLFFSQQLDLGASEESADEDRDSPQGQTTDPSERKKPAPGPHSSPPEEKGAFGDAPATEQPPLPPPAPHKPLDDVYSLFFANNNWYFFLRLHQTLCSRLLKIYRQAQKQLLEYRTEKEREKLLCEGRREKGSDPAMELRLKQPSEVELEEYYPAFLDMVRSLLEGSIDPTQYEDTLREMFTIHAYVGFTMDKLVQNIARQLHHLVSDDVCLKVVELYLNEKKRGAAGGNLSSRCVRAARETSYQWKAERCMADENCFKVMFLQRKGQVIMTIELLDTEEAQTEDPVEVQHLARYVEQYVGTEGASSSPTEGFLLKPVFLQRNLKKFRRRWQSEQARALRGEARSSWKRLVGVESACDVDCRFKLSTHKMVFIVNSEDYMYRRGTLCRAKQVQPLVLLRHHQHFEEWHSRWLEDNVTVEAASLVQDWLMGEEDEDMVPCKTLCETVHVHGLPVTRYRVQYSRRPASP

The chains behind the UniProt entries cited, without tags or fusion partners.
UniProt P08579: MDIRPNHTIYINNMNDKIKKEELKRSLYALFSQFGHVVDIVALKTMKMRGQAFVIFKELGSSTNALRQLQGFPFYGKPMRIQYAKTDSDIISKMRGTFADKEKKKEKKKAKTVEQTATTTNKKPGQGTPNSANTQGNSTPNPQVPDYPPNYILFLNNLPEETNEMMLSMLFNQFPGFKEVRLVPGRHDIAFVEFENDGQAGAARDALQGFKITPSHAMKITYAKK

Target: FLAG-V5-tagged U2-B” (FV5-U2-B”) (UniProt P08579)
Experiment: affinity purification with mass spectrometry; in vitro splicing reaction of NEB” nuclear extract with AdML pre-mRNA and ATPγS, Sephacryl-S500 gel filtration, pooled spliceosome fractions on anti-FLAG M2 Affinity Gel, mass spectrometry; two independent experiments

Row | Binder | binding
1 | B1 | binds
2 | B2 | binds
3 | B3 | binds
4 | B4 | binds
5 | B5 | binds
6 | B6 | binds
